PubChem BioAssay AID1259405, NCATS – 2018
Screen: 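Knock-downs that lift recombinant protein yield in hamster ovary cells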 (primary screen). Cells: Chinese hamster CHO-K1 ovary cells with stable secreted eGFP expression. Reagent: single siRNA against mouse genes, 0.8 pmol siRNA per well (2 µl of 400 nM stock). Duration: 3 days. Read-out: 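Per-well intracellular GFP measured by laser scanning cytometry, plus viability from ATP luminescence, each relative to plate median of non-targeting control wells, in %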. Direction: GFP, % of control: higher = more GFP per well, higher productivity; viability (ATP), % of control: higher = more viable cells (more ATP). Call rule: 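Called active when intracellular GFP, relative to negative control, is at or above 120%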.
Here is a random part of about 50,000 reagents. About 4,000 of all reagents (8%) count as active. 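Mouse siRNA library applied to hamster cells; one well for each siRNA.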 Reagents against one gene are numbered here. Reagent sequences are not shown.

For Hemk1 (HemK methyltransferase family member 1) #1, how do the results read?
GFP, % of control: 86.6; viability (ATP), % of control: 96; call: inactive

What is on record for Hemk1 (HemK methyltransferase family member 1) #2?
GFP, % of control: 79.3; viability (ATP), % of control: 97.1; call: inactive

With Hemk1 (HemK methyltransferase family member 1) #3, what was measured?
GFP, % of control: 107; viability (ATP), % of control: 103; call: inactive

For Abhd2 (abhydrolase domain containing 2) #1, what was measured?
GFP, % of control: 49.5; viability (ATP), % of control: 69.9; call: inactive

For Abhd2 (abhydrolase domain containing 2) #2, what was measured?
GFP, % of control: 112; viability (ATP), % of control: 89.3; call: inactive

For Abhd2 (abhydrolase domain containing 2) #3, what does the deposit list?
GFP, % of control: 9.78; viability (ATP), % of control: 39.5; call: inactive

What is on record for Tlr3 (toll-like receptor 3) #1?
GFP, % of control: 93.7; viability (ATP), % of control: 59.1; call: inactive

For Tlr3 (toll-like receptor 3) #2, what does the deposit list?
GFP, % of control: 91.5; viability (ATP), % of control: 65.3; call: inactive

With Tlr3 (toll-like receptor 3) #3, what does the deposit list?
GFP, % of control: 94.1; viability (ATP), % of control: 93.8; call: inactive

With Strap (serine/threonine kinase receptor associated protein) #1, how do the results read?
GFP, % of control: 71.6; viability (ATP), % of control: 32.5; call: inactive

For Strap (serine/threonine kinase receptor associated protein) #2, what was measured?
GFP, % of control: 65.4; viability (ATP), % of control: 84.7; call: inactive

What is on record for Strap (serine/threonine kinase receptor associated protein) #3?
GFP, % of control: 196; viability (ATP), % of control: 87.7; call: active

For Pus1 (pseudouridine synthase 1) #1, what was measured?
GFP, % of control: 34.8; viability (ATP), % of control: 55.1; call: inactive

Which result is listed for Pus1 (pseudouridine synthase 1) #2?
GFP, % of control: 91.6; viability (ATP), % of control: 78.5; call: inactive

With Pus1 (pseudouridine synthase 1) #3, what was measured?
GFP, % of control: 99.4; viability (ATP), % of control: 110; call: inactive

Called active (from the list above):
Strap (serine/threonine kinase receptor associated protein) #3 → GFP, % of control: 196; viability (ATP), % of control: 87.7; call: active

Additional entries follow.
For Tmed6 (transmembrane p24 trafficking protein 6) #1, what does the deposit list?
GFP, % of control: 81.2; viability (ATP), % of control: 77.1; call: inactive

With Tmed6 (transmembrane p24 trafficking protein 6) #2, what does the deposit list?
GFP, % of control: 91; viability (ATP), % of control: 94.1; call: inactive

For Tmed6 (transmembrane p24 trafficking protein 6) #3, what does the deposit list?
GFP, % of control: 73.9; viability (ATP), % of control: 75.7; call: inactive

For Ntrk2 (neurotrophic tyrosine kinase, receptor, type 2) #1, what does the deposit list?
GFP, % of control: 108; viability (ATP), % of control: 88.7; call: inactive

With Ntrk2 (neurotrophic tyrosine kinase, receptor, type 2) #2, how do the results read?
GFP, % of control: 96; viability (ATP), % of control: 89.8; call: inactive

What did the screen give for Ntrk2 (neurotrophic tyrosine kinase, receptor, type 2) #3?
GFP, % of control: 99.7; viability (ATP), % of control: 74.7; call: inactive

For Iqcg (IQ motif containing G) #1, what does the deposit list?
GFP, % of control: 77.1; viability (ATP), % of control: 85; call: inactive

What is on record for Iqcg (IQ motif containing G) #2?
GFP, % of control: 90.8; viability (ATP), % of control: 107; call: inactive

What did the screen give for Iqcg (IQ motif containing G) #3?
GFP, % of control: 67.5; viability (ATP), % of control: 66.8; call: inactive

With Fahd2a (fumarylacetoacetate hydrolase domain containing 2A) #1, what does the deposit list?
GFP, % of control: 57; viability (ATP), % of control: 42.5; call: inactive

What is on record for Fahd2a (fumarylacetoacetate hydrolase domain containing 2A) #2?
GFP, % of control: 75.3; viability (ATP), % of control: 84.9; call: inactive

For Fahd2a (fumarylacetoacetate hydrolase domain containing 2A) #3, what was measured?
GFP, % of control: 45.6; viability (ATP), % of control: 44.2; call: inactive
